Test system: mouse ADAMTS7
Assay: TMT10 TAILS N-terminomics, SMC1 experiment (Ad-mADAMTS7 WT vs EQ vs Luc, technical replicates, trypsin digest)
Format: cell-based
Conditions: for TAILS_SMC_Scaleup_fxns_mATS7i: mouse ADAMTS7; for SMC1 TAILS.total Intensity: TAILS HC Overlap, total intensity of the peptide
From the text: ADAMTS7 Expression, Cell Culture and Preparation of the Secreted Proteins—Full-length mouse Adamts7 1-1857 (Uniprot Q68SA9, WT or E373Q catalytic mutant) with a carboxyl terminal 3xFLAG tag was used to generate custom adenoviruses as previously described. Adeno-CMV-Luciferase (Ad-Luc) from Vector Biolabs was used as a negative control. Human Coronary Artery Smooth Muscle Cells (HCA-SMC) were obtained from Lonza and expanded in Lonza SmGM-2 media in 15 cm tissue culture plates. Twenty-four hours before media collection, near confluent plates were transduced with 50 MOI adenovirus and switched to Lonza Basal SM media with volumes of 20 ml per 15 cm plate. Expression of the Flag tagged ADAMTS7 was confirmed from the media using western blot and detected using the anti-Flag M2-HRP antibody (Sigma, A8592). Collected media was processed by adding protease inhibitors (1 mM EDTA and 1 mM PMSF) and clarified by 500 g×5 min spin at 4 C to pellet cell debris. Cell media supernatants were then passed through a 0.22 um filter and kept chilled. Processed media was then concentrated 50-100× using 3 kDa Centricon Plus-70 filter unit, spun at 3,500 g×60 min at 4 C. Approximately 10% of the processed, concentrated media was set aside for total secretome proteolytic analysis. The remaining 90% of the processed, concentrated media was buffer exchanged into 50 mM HEPES pH 8.0, 150 mM NaCl (2×50 ml) using the 3 kDa Centricon Plus-70 filter unit and concentrated to >2 mg/ml to serve as input for the TAILS experiment. Secretome and TAILS input samples were stored at −80° C.
For the first experiment, referred to as SMC1, 120 ml of media from 6×15 cm dishes was pooled from each condition (Luc, WT, EQ) and processed to produce three separate inputs for the TAILS experiment. Luc, WT and EQ inputs from the SMC1 experiment were each divided into triplicate 400 ug samples to generate technical replicate TAILS data. For the second experiment, referred to as SMC2, media was processed separately in triplicate for each condition (Luc1, Luc2, Luc3, WT1, WT2, WT3, EQ1, EQ2, EQ3) using 60 ml of media from 3×15 cm dishes for each process replicate. Inputs from the SMC2 experiment used process replicates of 300 ug each to generate TAILS data. The third experiment used input from cultured Human umbilical vein endothelial cells (HUVEC) from Lifeline Cell Technology grown in VascuLife Media and transduced in Lifeline Basal EC (+bFGF2 10 ng/ml). The HUVEC experiment used the same strategy as the SMC2 experiment, with 40 ml of media from 2×15 cm dishes for each process replicate and used 200 ug each to generate TAILS data. Inputs for process replicate experiments were restricted to the lowest concentration from the 9 parallel samples for SMC2 or HUVEC.
TMT10 isotopic labeling and negative selection of non-labeled peptides-Sample preparation was performed based on the TAILS protocol from the Overall lab with some modifications. From a single experiment, nine parallel protein samples in 50 mM HEPES pH 8.0, 150 mM NaCl were separately denatured with guanidinium chloride (Sigma, G4505) to reach a final concentration of 2.5M guanidinium chloride and 250 mM HEPES and incubated at 65° C. for 15 min. Reduction was achieved through addition of tris(2-carboxylethyl) phosphine (TCEP) at a final concentration of […] and incubated at 65° C. for 45 min. Alkylation reaction was performed with addition of iodoacetamide (IAA, Sigma, A3221) to a final concentration of 10 mM IAA for 15 min at room temperature in the dark. Following denaturation, reduction and alkylation steps, ten percent of each of the nine parallel protein samples was removed and combined to serve as a pooled reference. Isobaric tags were added to free amine groups using the TMT10plex Isobaric Mass Tagging Kit (ThermoFisher, 90113) with TMT channels randomly assigned to the nine samples and TMT 131 assigned to the pooled reference. […]

[1] = TAILS N-terminal peptide signal, SMC scale-up fractions, label = TAILS_id (gene symbol_StartAA)
[2] = TAILS N-terminal peptide identified in SMC conditioned media (scale-up, fractions), value listed per TAILS_id (protein_StartAA)

ACTB_21 (FAGDDAPR; listed as Homo sapiens)
TAILS_SMC_Scaleup_fxns_mATS7i [1]: 6.18E+09

ACTB_105 (LTEAPLNPKANR; listed as Homo sapiens)
TAILS_SMC_Scaleup_fxns_mATS7i [1]: 5.77E+09

ADAM9_69 (VIQAEGKEHIIHLER; listed as Homo sapiens)
SMC1 TAILS.total Intensity: 2.56E+10 | TAILS_SMC_Scaleup_fxns_mATS7i [1]: 2.56E+10

APLP2_579 (ISETPVDVR; listed as Homo sapiens)
TAILS_SMC_Scaleup_fxns_mATS7i [1]: 1.83E+08

CDC37_43 (FQKEKEELDR; listed as Homo sapiens)
TAILS_SMC_Scaleup_fxns_mATS7i [1]: 4.09E+06

CDH11_467 (HQEAKVPVAIR; listed as Homo sapiens)
TAILS_SMC_Scaleup_fxns_mATS7i [1]: 2.90E+07

CLEC11A_50 (HLQEALGLPAGR; listed as Homo sapiens)
TAILS_SMC_Scaleup_fxns_mATS7i [1]: 7.22E+07

COL1A2_91 (GPMGLMGPR; listed as Homo sapiens)
TAILS_SMC_Scaleup_fxns_mATS7i [1]: 6.70E+07

COL1A2_113 (FQGPAGEPGEPGQTGPAGAR; listed as Homo sapiens)
SMC1 TAILS.total Intensity: 2.09E+09 | TAILS_SMC_Scaleup_fxns_mATS7i [1]: 2.09E+09

COL1A2_389 (SAGPPGPPGLR; listed as Homo sapiens)
TAILS_SMC_Scaleup_fxns_mATS7i [1]: 4.24E+07

COL1A2_425 (ASGPAGVR; listed as Homo sapiens)
TAILS_SMC_Scaleup_fxns_mATS7i [1]: 3.44E+08

COL1A2_681 (VGAPGPAGATGDR; listed as Homo sapiens)
TAILS_SMC_Scaleup_fxns_mATS7i [1]: 4.11E+08

COL1A2_731 (AAGQPGAKGER; listed as Homo sapiens)
TAILS_SMC_Scaleup_fxns_mATS7i [1]: 2.50E+08

COL1A2_1037 (HHGDQGAPGSVGPAGPR; listed as Homo sapiens)
TAILS_SMC_Scaleup_fxns_mATS7i [1]: 7.86E+09

COL1A2_1127 (SLRPKDYEVDATLKSLNNQIETLLTPEGSR; listed as Homo sapiens)
TAILS_SMC_Scaleup_fxns_mATS7i [1]: 1.05E+08

COL4A2_172 (YALPKEER; listed as Homo sapiens)
TAILS_SMC_Scaleup_fxns_mATS7i [1]: 8.09E+07

COL5A1_544 (SQAQAILQQAR; listed as Homo sapiens)
TAILS_SMC_Scaleup_fxns_mATS7i [1]: 2.24E+08

COL8A1_90 (MKEIQPAPR; listed as Homo sapiens)
TAILS_SMC_Scaleup_fxns_mATS7i [1]: 4.20E+07

ECM1_43 (YAAPPSPPLSR; listed as Homo sapiens)
TAILS_SMC_Scaleup_fxns_mATS7i [1]: 3.25E+08

ECM1_134 (FGDQSHPEPESWNAAQHCQQDR; listed as Homo sapiens)
TAILS_SMC_Scaleup_fxns_mATS7i [1]: 4.13E+08

EFHD2_67 (QGIGEPQSPSR; listed as Homo sapiens)
TAILS_SMC_Scaleup_fxns_mATS7i [1]: 2.69E+07

EHBP1L1_298 (TAPTPAPR; listed as Homo sapiens)
TAILS_SMC_Scaleup_fxns_mATS7i [1]: 2.19E+07

FLNA_612 (SVEGPSQAKIECDDKGDGSCDVR; listed as Homo sapiens)
TAILS_SMC_Scaleup_fxns_mATS7i [1]: 8.79E+08

FLNA_695 (FTVDAKHGGKAPLR; listed as Homo sapiens)
TAILS_SMC_Scaleup_fxns_mATS7i [1]: 3.71E+08

FN1_45 (VSQSKPGCYDNGKHYQINQQWER; listed as Homo sapiens)
TAILS_SMC_Scaleup_fxns_mATS7i [1]: 5.68E+10

FN1_47 (QSKPGCYDNGKHYQINQQWER; listed as Homo sapiens)
TAILS_SMC_Scaleup_fxns_mATS7i [1]: 1.26E+10

FN1_281 (SGSGPFTDVR; listed as Homo sapiens)
TAILS_SMC_Scaleup_fxns_mATS7i [1]: 5.31E+09

FN1_282 (GSGPFTDVR; listed as Homo sapiens)
TAILS_SMC_Scaleup_fxns_mATS7i [1]: 1.05E+10

FN1_1731 (FTDVDVDSIKIAWESPQGQVSR; listed as Homo sapiens)
TAILS_SMC_Scaleup_fxns_mATS7i [1]: 9.47E+08

FN1_2143 (FEEHGFR; listed as Homo sapiens)
TAILS_SMC_Scaleup_fxns_mATS7i [1]: 8.90E+07

FN1_2217 (FQDTSEYIISCHPVGTDEEPLQFR; listed as Homo sapiens)
TAILS_SMC_Scaleup_fxns_mATS7i [1]: 3.90E+09

GALNT2_31 (LAGGAGGGAGR; listed as Homo sapiens)
TAILS_SMC_Scaleup_fxns_mATS7i [1]: 2.03E+08

GSN_35 (SQAGAPQGR; listed as Homo sapiens)
TAILS_SMC_Scaleup_fxns_mATS7i [1]: 3.49E+07

HEG1_49 (GAGLELQLER; listed as Homo sapiens)
TAILS_SMC_Scaleup_fxns_mATS7i [1]: 9.60E+08

HLA−C_52 (VDDTQFVR; listed as Homo sapiens)
TAILS_SMC_Scaleup_fxns_mATS7i [1]: 1.21E+10

HSPG2_1937 (SSAGQQVAR; listed as Homo sapiens)
TAILS_SMC_Scaleup_fxns_mATS7i [1]: 1.34E+08

HSPG2_2688 (VADSGEYVCR; listed as Homo sapiens)
TAILS_SMC_Scaleup_fxns_mATS7i [1]: 2.03E+07

HSPG2_3250 (SPLPWQHR; listed as Homo sapiens)
TAILS_SMC_Scaleup_fxns_mATS7i [1]: 1.36E+10

HSPG2_3542 (IAHVELADAGQYR; listed as Homo sapiens)
TAILS_SMC_Scaleup_fxns_mATS7i [1]: 1.56E+09

HSPG2_3647 (QGKVKAFAHLQVPER; N-terminal pyroglutamate; listed as Homo sapiens)
TAILS_SMC_Scaleup_fxns_mATS7i [1]: 6.48E+08

HSPG2_3672 (SFLPLPTIKDAYR; listed as Homo sapiens)
TAILS_SMC_Scaleup_fxns_mATS7i [1]: 1.76E+09

HSPG2_3813 (SSGFIGCVR; listed as Homo sapiens)
TAILS_SMC_Scaleup_fxns_mATS7i [1]: 1.02E+08

HSPG2_4004 (SAEPLALGR; listed as Homo sapiens)
TAILS_SMC_Scaleup_fxns_mATS7i [2]: 1.03E+10

HSPG2_4021 (LNKDGSLR; listed as Homo sapiens)
TAILS_SMC_Scaleup_fxns_mATS7i [2]: 3.13E+08

HSPG2_4075 (GCVGEVSVNGKR; listed as Homo sapiens)
TAILS_SMC_Scaleup_fxns_mATS7i [2]: 1.79E+09

HSPG2_4133 (DGFKGDLCEHEENPCQLR; listed as Homo sapiens)
TAILS_SMC_Scaleup_fxns_mATS7i [2]: 4.04E+08

HTRA1_33 (LAAGCPDR; listed as Homo sapiens)
TAILS_SMC_Scaleup_fxns_mATS7i [2]: 1.00E+08

IFI30_43 (YKTGNLYLR; listed as Homo sapiens)
TAILS_SMC_Scaleup_fxns_mATS7i [2]: 6.01E+06

IGFBP3_200 (FSSESKR; listed as Homo sapiens)
TAILS_SMC_Scaleup_fxns_mATS7i [2]: 3.44E+08

LASP1_123 (HEEFEKSR; listed as Homo sapiens)
TAILS_SMC_Scaleup_fxns_mATS7i [2]: 2.34E+07

LGALS1_53 (HGDANTIVCNSKDGGAWGTEQR; listed as Homo sapiens)
TAILS_SMC_Scaleup_fxns_mATS7i [2]: 4.04E+08

LGALS3BP447 (FQAPSDYR; listed as Homo sapiens)
TAILS_SMC_Scaleup_fxns_mATS7i [2]: 1.48E+08

LOXL2_318 (AYKPEQPLVR; listed as Homo sapiens)
TAILS_SMC_Scaleup_fxns_mATS7i [2]: 7.35E+09

LOX_80 (ANASAQQPR; listed as Homo sapiens)
TAILS_SMC_Scaleup_fxns_mATS7i [2]: 8.09E+07

LOX_81 (NASAQQPR; listed as Homo sapiens)
TAILS_SMC_Scaleup_fxns_mATS7i [2]: 3.49E+07

LTBP1_494 (SVQIHQVSR; listed as Homo sapiens)
TAILS_SMC_Scaleup_fxns_mATS7i [2]: 1.79E+09

LTBP1_546 (HVYPVAAKTQLGR; listed as Homo sapiens)
TAILS_SMC_Scaleup_fxns_mATS7i [2]: 3.09E+08

LTBP2_485 (SVQIHQVAQVR; listed as Homo sapiens)
TAILS_SMC_Scaleup_fxns_mATS7i [2]: 7.57E+08

LTBP2_533 (SGEPPRPLPPAAPR; listed as Homo sapiens)
TAILS_SMC_Scaleup_fxns_mATS7i [2]: 1.02E+10

LTBP2_677 (SLGPGTCTLPLAQR; listed as Homo sapiens)
TAILS_SMC_Scaleup_fxns_mATS7i [2]: 2.60E+09

LTBP2_760 (SSGALPGPAER; listed as Homo sapiens)
TAILS_SMC_Scaleup_fxns_mATS7i [2]: 1.84E+09

LTBP2_1023 (GKCTNLEGSFR; listed as Homo sapiens)
TAILS_SMC_Scaleup_fxns_mATS7i [2]: 2.82E+08

LTBP2_1371 (SGQKGHAPCSSVLGR; listed as Homo sapiens)
TAILS_SMC_Scaleup_fxns_mATS7i [2]: 6.28E+08

LTBP2_1560 (TTYTECCCQDGEAWSQQCALCPPR; listed as Homo sapiens)
TAILS_SMC_Scaleup_fxns_mATS7i [2]: 7.12E+09

From patent publication US20240368668A1, “SUBSTRATES AND BIOMARKERS OF ADAMTS7” (The Broad Institute, Inc., priority 2021, published 2024)
